Drug screen on melanoma cell lines: apoptosis marker

Data from the primary screen of doi:10.1371/journal.pone.0140310, rounded.

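The test systems are human melanoma cell lines, treated with a pair of drugs for 72 h and then stained and imaged. The read-out is the fraction of cleaved-PARP-positive nuclei, in % of that fraction in the DMSO control; 200 means twice the control level of this apoptosis marker. Concentrations were fixed for each drug; these are the higher of two levels. No replicate spread is given; individual values may be noisy. Basal and induced levels differ widely between cell lines.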 Only some of the drugs and lines screened are listed, without regard to their results. A dash means that no value is listed here.

Compounds and concentrations:
dasatinib, 20 nM: Cc1nc(Nc2ncc(C(=O)Nc3c(C)cccc3Cl)s2)cc(N2CCN(CCO)CC2)n1
GW9662, 10000 nM: O=C(Nc1ccccc1)c1cc([N+](=O)[O-])ccc1Cl
decitabine, 500 nM: Nc1ncn([C@H]2C[C@H](O)[C@@H](CO)O2)c(=O)n1
FH535, 5000 nM: Cc1cc([N+](=O)[O-])ccc1NS(=O)(=O)c1cc(Cl)ccc1Cl
tamatinib, 2000 nM: COc1cc(Nc2ncc(F)c(Nc3ccc4c(n3)NC(=O)C(C)(C)O4)n2)cc(OC)c1OC
vatalanib, 10000 nM: Clc1ccc(Nc2nnc(Cc3ccncc3)c3ccccc23)cc1
lapatinib, 4000 nM: CS(=O)(=O)CCNCc1ccc(-c2ccc3ncnc(Nc4ccc(OCc5cccc(F)c5)c(Cl)c4)c3c2)o1
AS-252424, 5000 nM: O=C1NC(=O)/C(=C/c2ccc(-c3ccc(F)cc3O)o2)S1

| # | Combination | G-361 | WM115 | A2058 | RVH-421 | MZ2-MEL | LOX IMVI | UACC-257 | C32 | SK-MEL-2 | WM3526 | SK-MEL-28 | SK-MEL-30 |
|---|---|---|---|---|---|---|---|---|---|---|---|---|---|
| 1 | AS-252424 + FH535 | 607 | 51.0 | 148 | 147 | - | 107 | 226 | 88.8 | - | 162 | 122 | 50.5 |
| 2 | GW9662 + decitabine | 220 | 135 | 145 | 265 | 133 | 219 | 33.4 | 71.6 | 111 | 140 | 59.8 | 128 |
| 3 | AS-252424 + tamatinib | 268 | 130 | 299 | 156 | 284 | 49.7 | 48.1 | 119 | 221 | 168 | 58.1 | 103 |
| 4 | vatalanib + GW9662 | 120 | 214 | 237 | 259 | 101 | 78.2 | 93.6 | 95.9 | 161 | 267 | 189 | 367 |
| 5 | decitabine + lapatinib | 153 | 183 | 215 | 92.1 | 149 | 172 | 92.7 | 120 | 90.4 | 186 | 114 | 122 |
| 6 | dasatinib + vatalanib | 279 | 1510 | 344 | 856 | 775 | 590 | 39.6 | 1130 | 154 | 151 | 126 | 84.0 |
| 7 | decitabine + dasatinib | 117 | 547 | 329 | 95.8 | 209 | 163 | 81.4 | 516 | 102 | 144 | 233 | 74.2 |
| 8 | GW9662 + tamatinib | 96.2 | 147 | 124 | 238 | 298 | 299 | 34.4 | 95.3 | 255 | 104 | 95.1 | 52.5 |
| 9 | FH535 + dasatinib | 227 | 108 | 175 | 109 | 284 | 224 | 186 | 294 | 138 | 141 | 143 | 45.6 |
| 10 | lapatinib + GW9662 | 93.8 | 73.9 | 145 | 69.1 | 255 | 140 | 67.3 | 93.9 | 276 | 138 | 98.1 | 128 |
| 11 | AS-252424 + dasatinib | 166 | 358 | 407 | 64.8 | 190 | 393 | 75.2 | 116 | 82.5 | 113 | 156 | 152 |
| 12 | GW9662 + AS-252424 | 280 | 218 | 196 | 62.4 | 138 | 238 | 73.0 | 87.5 | 1970 | 85.0 | 117 | 89.2 |
| 13 | dasatinib + lapatinib | 208 | 377 | 251 | 208 | 95.1 | 600 | 45.7 | 1140 | 122 | 134 | 53.9 | 77.0 |
| 14 | tamatinib + vatalanib | 130 | 147 | 168 | 78.2 | - | 170 | 198 | 206 | 22.9 | 189 | 119 | 43.5 |
| 15 | GW9662 + dasatinib | 164 | 115 | 114 | 209 | 95.3 | 44.3 | 66.4 | 109 | 209 | 82.9 | 587 | 187 |
| 16 | decitabine + vatalanib | 218 | 410 | 196 | 180 | 193 | 115 | 91.3 | 332 | 187 | 380 | 45.5 | 95.4 |
| 17 | AS-252424 + lapatinib | 178 | 54.3 | 111 | 103 | 30.6 | 197 | 30.2 | 76.2 | 74.7 | 216 | 56.3 | 76.2 |
| 18 | tamatinib + FH535 | 242 | 138 | 214 | 166 | 191 | 263 | 652 | 100 | 61.4 | 234 | 204 | 101 |
| 19 | GW9662 + FH535 | 396 | 628 | 132 | 78.5 | - | 180 | 199 | 93.4 | 101 | 126 | 72.9 | 184 |
| 20 | FH535 + vatalanib | 1010 | 163 | 87.7 | 217 | 122 | 104 | 141 | 90.7 | 63.1 | 97.2 | 246 | 80.4 |
| 21 | decitabine + FH535 | 533 | 150 | 142 | 265 | 180 | 69.1 | 181 | 88.3 | 31.0 | 200 | 202 | 88.3 |
| 22 | tamatinib + lapatinib | 232 | 264 | 211 | 256 | - | 352 | 129 | 135 | 159 | 476 | 208 | 151 |

2 of the entries, repeated:

| Combination | G-361 | WM115 | A2058 | RVH-421 | MZ2-MEL | LOX IMVI | UACC-257 | C32 | SK-MEL-2 | WM3526 | SK-MEL-28 | SK-MEL-30 |
|---|---|---|---|---|---|---|---|---|---|---|---|---|
| GW9662 + dasatinib | 164 | 115 | 114 | 209 | 95.3 | 44.3 | 66.4 | 109 | 209 | 82.9 | 587 | 187 |
| AS-252424 + tamatinib | 268 | 130 | 299 | 156 | 284 | 49.7 | 48.1 | 119 | 221 | 168 | 58.1 | 103 |